We go through 1 compound from patent US20220033407A1, “N-(pyridin-2-ylsulfonyl)cyclopropanecarboxamide Derivatives and their Use in the Treatment of Disease” (NOVARTIS AG, priority 2018, published 2022).

Protein sequences, listed by entry. Tags and fused reporters are not part of them. Chains listed by the source or under a name are the forms on record and can include a tag or linker.
UniProt P13569, with tags, fused parts or gaps DEL508-508: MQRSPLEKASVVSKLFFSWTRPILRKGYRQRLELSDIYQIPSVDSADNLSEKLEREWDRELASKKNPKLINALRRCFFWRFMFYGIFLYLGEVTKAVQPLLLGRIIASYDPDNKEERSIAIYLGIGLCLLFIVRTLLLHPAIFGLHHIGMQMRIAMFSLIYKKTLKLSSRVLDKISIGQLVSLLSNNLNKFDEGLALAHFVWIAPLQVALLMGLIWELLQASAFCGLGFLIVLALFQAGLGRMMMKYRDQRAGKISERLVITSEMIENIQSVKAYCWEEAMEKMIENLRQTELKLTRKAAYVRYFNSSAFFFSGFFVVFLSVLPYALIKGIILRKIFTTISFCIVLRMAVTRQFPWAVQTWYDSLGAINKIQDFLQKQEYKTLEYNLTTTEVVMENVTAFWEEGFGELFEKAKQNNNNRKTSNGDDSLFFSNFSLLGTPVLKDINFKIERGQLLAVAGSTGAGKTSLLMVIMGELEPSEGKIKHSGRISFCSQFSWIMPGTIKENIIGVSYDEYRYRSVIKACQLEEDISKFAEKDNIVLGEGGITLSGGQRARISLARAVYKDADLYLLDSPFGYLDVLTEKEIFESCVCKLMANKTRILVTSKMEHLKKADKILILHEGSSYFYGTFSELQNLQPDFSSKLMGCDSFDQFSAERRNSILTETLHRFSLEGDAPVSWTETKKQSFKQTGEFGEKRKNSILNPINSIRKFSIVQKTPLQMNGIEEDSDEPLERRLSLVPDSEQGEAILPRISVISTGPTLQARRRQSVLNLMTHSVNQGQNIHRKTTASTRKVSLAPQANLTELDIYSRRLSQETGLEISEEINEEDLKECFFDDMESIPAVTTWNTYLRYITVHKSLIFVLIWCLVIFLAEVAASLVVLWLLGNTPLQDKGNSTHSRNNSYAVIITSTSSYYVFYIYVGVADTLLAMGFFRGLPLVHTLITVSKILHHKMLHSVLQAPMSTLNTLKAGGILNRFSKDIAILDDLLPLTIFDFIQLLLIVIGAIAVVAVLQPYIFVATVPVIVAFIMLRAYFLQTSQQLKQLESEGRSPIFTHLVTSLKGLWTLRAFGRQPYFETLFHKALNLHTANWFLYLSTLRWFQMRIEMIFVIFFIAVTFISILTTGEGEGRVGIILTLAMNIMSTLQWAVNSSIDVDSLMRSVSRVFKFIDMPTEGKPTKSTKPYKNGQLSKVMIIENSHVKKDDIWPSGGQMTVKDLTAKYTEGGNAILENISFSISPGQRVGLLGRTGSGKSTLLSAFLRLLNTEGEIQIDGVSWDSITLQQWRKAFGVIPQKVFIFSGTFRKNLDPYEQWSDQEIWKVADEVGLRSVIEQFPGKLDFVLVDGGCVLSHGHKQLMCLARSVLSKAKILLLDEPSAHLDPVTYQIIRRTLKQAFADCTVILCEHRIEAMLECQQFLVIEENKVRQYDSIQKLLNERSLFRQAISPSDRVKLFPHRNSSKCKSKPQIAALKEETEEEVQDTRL

Structures were worked out from names or drawings and are uncertain.

In the test the target is delF508-CFTR-HRP (Homo sapiens, UniProt P13569, DEL508-508). The test is described as follows: Measurement of delF508-CFTR-HRP surface expression in CFBE41o- cells (HRP luminescence).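 On DelF508-CFTR-HRP Amax %: percent efficacy relative to a reference CFTR corrector compound.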

In general, EC50 refers to the concentration at which the effect is half-maximal. As for `O=C(NS(=O)(=O)c1cccc(N2CC[C@H](O)C2)n1)C1(Oc2cc(Cl)ccc2N2CCC3(CC2)CC3)CC1` [Example 9-9, (S)-1-(5-Chloro-2-(6-azaspiro[2.5]octan-6-yl)phenoxy)-N-((6-(3-hydroxypyrrolidin-1-yl)pyridin-2-yl)sulfonyl)cyclopropanecarboxamide], the “DelF508-CFTR-HRP Amax %” value worked out at 551.3%. Also, the EC50 (read-out: DelF508-CFTR-HRP EC50, mean of at least two replicates) worked out at 600 nM.
